Assay [1] deals with rat μ-opioid receptor conjugated to yellow fluorescent protein (rat) (UniProt P33535). Briefly: FRET or BRET; as a1, but cells treated with buprenorphine.
The target is the same in assay [2]. Briefly: condition: only 1 μM diprenorphine for 10 min before 10 μM DAMGO; FRET or BRET; as a1, but cells incubated with 1 μM diprenorphine for 10 min before addition of 10 μM DAMGO. In general terms: Bioluminescence resonance energy transfer reports proximity on the nanometre scale.
For assay [3] the target is unchanged. Put plainly: condition: only with 1 μM diprenorphine alone (no agonist); FRET or BRET; as a1, but cells treated with 1 μM diprenorphine alone (0.01% DMSO).
Assay [4] shares this target. Put plainly: FRET or BRET; intact HEK 293 cells co-transfected 1:1 with MOPr-YFP and arrestin-3-Rluc; agonist (DAMGO or norbuprenorphine) and coelenterazine added at time 0; luminescence read over 10 min; percent increase in BRET ratio over control cells.

Chains of the proteins cited; added tags and fusions are not shown.
UniProt P33535: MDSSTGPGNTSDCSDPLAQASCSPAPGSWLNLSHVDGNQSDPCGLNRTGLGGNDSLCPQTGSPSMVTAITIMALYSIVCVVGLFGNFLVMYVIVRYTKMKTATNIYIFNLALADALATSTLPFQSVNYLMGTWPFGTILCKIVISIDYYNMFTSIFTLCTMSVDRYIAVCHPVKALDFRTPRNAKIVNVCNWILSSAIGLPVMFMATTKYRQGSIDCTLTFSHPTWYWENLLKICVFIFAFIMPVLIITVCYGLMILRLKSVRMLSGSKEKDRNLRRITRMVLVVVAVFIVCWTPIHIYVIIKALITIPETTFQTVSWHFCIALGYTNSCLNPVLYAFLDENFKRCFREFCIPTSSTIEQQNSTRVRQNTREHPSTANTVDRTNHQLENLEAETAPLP
UniProt P32121: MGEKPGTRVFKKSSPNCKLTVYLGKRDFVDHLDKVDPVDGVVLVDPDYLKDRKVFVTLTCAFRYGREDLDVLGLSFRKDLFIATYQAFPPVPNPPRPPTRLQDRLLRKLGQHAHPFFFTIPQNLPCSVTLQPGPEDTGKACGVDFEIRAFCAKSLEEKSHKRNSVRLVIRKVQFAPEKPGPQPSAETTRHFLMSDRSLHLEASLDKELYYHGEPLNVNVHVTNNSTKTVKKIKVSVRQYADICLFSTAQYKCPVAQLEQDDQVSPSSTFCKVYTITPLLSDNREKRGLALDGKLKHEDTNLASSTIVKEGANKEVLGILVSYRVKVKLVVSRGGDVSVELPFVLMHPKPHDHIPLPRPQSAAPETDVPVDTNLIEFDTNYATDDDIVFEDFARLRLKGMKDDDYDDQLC

No constants are given. Whether binding was seen depends on the method and setting. In cells and extracts the contact can be indirect. Some results given as binding are weak or reduced against the parent protein; the word gives no strength.

With “arrestin-3 tagged with renilla luciferase (from UniProt P32121 1-409)”, the binding result is “binds weakly” in assay [1], “no binding” in assay [2], “no binding” in assay [3] and “binds” in assay [4].

The record behind these values is paper PMC5472181.
